The labels stand for the following.
B1: pTAC12, yeast two-hybrid fusion (protein, UniProt F4IHY7 1-527)
chain: MASISTTTWLYRGQVCTDSGKSSNCIVQRRVKCGFPLKTLHAGITSRDRSLRHCIKCKKEDGDGDVSEGSKKSEEGFEYVTVERHPYHSYMDSTSGKLEPASGARASIPGEDYWPEGTSSRVRAARAPQPAGESSSFPSYGKNPGSRRKKNRKATEENVTVETNDEVSDSEDSSEEEENDSSDGFVTYKNEFEREEEETGFELDKKLGRPHPFIDPTKKKQIEKTLTSDESWWNWRKPEKEQWSRWQRRRPDVETVFLKAMAETGQVKLYGEEPTLTETSLYRARRHLFKEERLQAERERLAKEGPMAFYSEWVKAWKRDTSREAVQKHFEETGEDENTQLIEMFSHQTDREYRIMMGTDIRIKRDPLAMRMREDQIKQIWGGDPVYPTINYIQDPNAVMDFRGPDFHEPTPNMLSYLKENGKVISREMHEALLTKEKTEQLEVPDMDDAMAQAVDIGENDDDEDDADVEKDDEKVPRNWSVLKETPELRTAKPKPKKEGRMSLDEAVDDAENLTDFLMDFEEETDP
B2: thioredoxin z (TRX z), yeast two-hybrid fusion (protein, UniProt Q9M7X9 1-183)
chain: MALVQSRTFPHLNTPLSPILSSLHAPSSLFIRREIRPVAAPFSSSTAGNLPFSPLTRPRKLLCPPPRGKFVREDYLVKKLSAQELQELVKGDRKVPLIVDFYATWCGPCILMAQELEMLAVEYESNAIIVKVDTDDEYEFARDMQVRGLPTLFFISPDPSKDAIRTEGLIPLQMMHDIIDNEM
B3: FLN1 (Fructokinase-Like Protein1), yeast two-hybrid fusion (protein, UniProt Q9M394 1-471)
chain: MASLLIFPHLHHFDSSLDRREVLVVRHSQASRRFLTPKASINGSGITNGAAAETTSKPSRKGRKKKQTSTVIEKDNTETDPELNPELADYDDGIEFPYDDPPLVCCFGAVQKEFVPVVRVHDNPMHPDMYSQWKMLQWDPPEFGRAPGGPPSNVAISHVRLGGRAAFMGKVGEDDFGDELVLMMNQERVQTRAVKFDENSKTACTRVKIKFKDGKMMAETVKEPPEDSLFASELNLAVLKEARIFHFNSEVLTSPTMQSTLFTAIQWSKKFGGLIFFDLNLPLPLWRSRNETRKLIKKAWNEANIIEVSQQELEFLLDEDYYERRRNYTPQYFAEDFDQTKNRRDYYHYTPEEIKSLWHDKLKLLVVTDGTLRLHYYTPTFDGVVIGTEDVLITPFTCDRTGSGDAVVAGIMRKLTTCPEMFEDQDVMERQLRFAVAAGIIAQWTIGAVRGFPTESATQNLKEQVYVPSMW
B4: pTAC14, yeast two-hybrid fusion (protein, UniProt Q84JF5 1-483)
chain: MASSVSLQFLTNTFISKPQGFCNGIVSAPRPRSNLLRDRQNGVRPIKVASIETQPFPLFQSPASEESSSSELETADPDFYKIGYVRSVRAYGVEFKEGPDGFGVYASKDIEPRRRARVIMEIPLELMITIRQKHPWMFFPDIVPIGHPIFDIINSTDPEIDWDIRLACLLLFSFDRDDHFWRLYGDFLPAADECSSLLLATEEDLAELQDPDLVSTIRQQQKRILDFWEKNWHSGVPLKIKRLAEDPERFIWAVSMAQTRCISMQTRVGALVQELNMMIPYADMLNHSFEPNCFLHWRPKDRMLEVMSNAGQDIKKGEEMTINYMPGQKNNMLMERYGFSTPVNPWDAIKFSGDSRIHLNSFLSVFNIYGLPEEYYHDSELSRGDTFVDGAVIAAARTLPTWSDIDLPPIPSAERKAVKELQDECRKMLAEYPTTAEQDQKLLDSMSEARTTFATAVKYRMHRKMFIGKIIKALDIYQERLLY

These are yes or no findings as the source states them, for the method shown. Binding calls can cover weak binding; strength is not graded here. Tags and fused reporters may be left off the sequences shown.

The target of the first assay is FLN2 (Fructokinase-Like Protein2), yeast two-hybrid fusion (Arabidopsis thaliana). Nature of the assay: two-hybrid; pairwise tests in yeast, pGBKT7 (BD) and pGADT7 (AD) fusions.
Regarding B1, the binding entry was “no binding”. On the same count and under the same terms, the entry for B2 is “binds”. On the same count and under the same terms, the entry for B3 is “binds”. The same measure, in the same setting: the entry for B4 is “no binding”.

The target is the same in a further assay. Nature of the assay: two-hybrid; screen: FLN2 fused to GAL4 BD as bait against a pool of the thirty-five reported TAC components fused to GAL4 AD; blue clones on SD medium lacking Trp, Leu, His and Ade with X-alpha-gal, identified by PCR and sequencing.
On to B2, for which the binding result is listed as “binds”. Still for that read-out and setting: to B3 belongs “binds”.

(Values after article PMC3760890.)
